Values of other authors as cited in US5482867A, “Spatially-addressable immobilization of anti-ligands on surfaces” (Affymax Technologies N.V., priority 1993, dated 1996).
For at least one compound, name, drawing or mass did not settle the structure.

Target: High-affinity folate binding proteins derived from human erythrocyte membranes
Conditions: Antony et al., J. Clin. Invest. (1987); cited from earlier work

In the case of `Nc1nc2c(c(=O)[nH]1)N[C@H](CNc1ccc(C(=O)N[C@@H](CCC(=O)O)C(=O)O)cc1)CN2` [tetrahydrofolate], the Ka for tetrahydrofolate is given as 3e+11 M⁻¹.
